# According to article PMC10675785, “(L)-Monomethyl Tyrosine (Mmt): New Synthetic Strategy via Bulky ‘Forced-Traceless’ Regioselective Pd-Catalyzed C(sp^2)–H Activation” (Pharmaceuticals, 2023):
# Amino acid sequences for entries named in this document (tags omitted).
# UniProt P41146, whole entry: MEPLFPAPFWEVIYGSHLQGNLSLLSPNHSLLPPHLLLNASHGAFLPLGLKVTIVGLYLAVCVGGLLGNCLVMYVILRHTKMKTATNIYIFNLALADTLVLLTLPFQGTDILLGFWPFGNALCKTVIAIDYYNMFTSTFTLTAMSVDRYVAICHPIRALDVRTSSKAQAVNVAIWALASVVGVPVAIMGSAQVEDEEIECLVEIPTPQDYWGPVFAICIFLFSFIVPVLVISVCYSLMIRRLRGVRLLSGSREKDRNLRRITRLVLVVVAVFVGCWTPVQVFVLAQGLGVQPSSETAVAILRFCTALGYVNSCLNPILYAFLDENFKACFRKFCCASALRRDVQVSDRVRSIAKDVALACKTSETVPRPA
# The structures given here were assigned with low confidence; some may be wrong.
# Biological target: human NOP receptor (Homo sapiens, UniProt P41146)
# Experiment: Calcium mobilization assay in CHO cells stably coexpressing the NOP receptor and the Gαqi5 chimeric G protein
# Conditions: CHOhNOP + Gαqi5 cells
smiles,measurement,setting,value
Cc1cc(O)ccc1C[C@H](N)C(=O)NCC(=O)NCC(=O)N[C@@H](Cc1ccccc1)C(=O)N[C@H](C(=O)NCC(=O)N[C@@H](C)C(=O)N[C@@H](CCCNC(=N)N)C(=O)N[C@@H](CCCCN)C(=O)N[C@@H](CO)C(=O)N[C@@H](C)C(=O)N[C@@H](CCCNC(=N)N)C(=O)N[C@@H](CCCCN)C(N)=O)[C@@H](C)O,pEC50 (CL95%),"Fluo-4 AM, FlexStation II, 37 °C, four-parameter logistic fit, mean of 5 or at least 6 experiments in duplicate",9.47 (8.92–10.01)
same,fold more potent than the Dmt derivative [Dmt^1]N/OFQ(1-13)-NH2,calcium mobilization,10 fold
